Measured values from the supplement of paper PMC6411743.
± gives the standard deviation of the averaged measurements. The entries are a selection whose mix differs from that of the whole data set.

By UniProt entry, the sequences of proteins in these tests, tags left out. Where a name states a change or a piece, a line headed by the entry shows the natural chain unless it says otherwise.
UniProt Q9UKT9: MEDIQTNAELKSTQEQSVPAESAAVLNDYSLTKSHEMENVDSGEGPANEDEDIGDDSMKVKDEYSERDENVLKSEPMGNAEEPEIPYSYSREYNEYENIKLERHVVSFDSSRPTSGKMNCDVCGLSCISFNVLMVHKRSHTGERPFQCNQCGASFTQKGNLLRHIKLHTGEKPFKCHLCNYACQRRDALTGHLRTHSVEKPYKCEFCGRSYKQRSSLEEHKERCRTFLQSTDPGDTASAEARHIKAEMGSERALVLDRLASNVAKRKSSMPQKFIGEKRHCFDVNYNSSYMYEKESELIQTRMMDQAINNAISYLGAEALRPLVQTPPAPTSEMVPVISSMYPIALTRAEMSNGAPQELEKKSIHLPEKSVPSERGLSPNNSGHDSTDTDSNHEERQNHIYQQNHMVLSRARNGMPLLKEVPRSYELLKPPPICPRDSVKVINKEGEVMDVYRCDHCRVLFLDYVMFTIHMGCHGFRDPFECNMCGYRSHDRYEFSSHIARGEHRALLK
UniProt Q9UL63, whole entry: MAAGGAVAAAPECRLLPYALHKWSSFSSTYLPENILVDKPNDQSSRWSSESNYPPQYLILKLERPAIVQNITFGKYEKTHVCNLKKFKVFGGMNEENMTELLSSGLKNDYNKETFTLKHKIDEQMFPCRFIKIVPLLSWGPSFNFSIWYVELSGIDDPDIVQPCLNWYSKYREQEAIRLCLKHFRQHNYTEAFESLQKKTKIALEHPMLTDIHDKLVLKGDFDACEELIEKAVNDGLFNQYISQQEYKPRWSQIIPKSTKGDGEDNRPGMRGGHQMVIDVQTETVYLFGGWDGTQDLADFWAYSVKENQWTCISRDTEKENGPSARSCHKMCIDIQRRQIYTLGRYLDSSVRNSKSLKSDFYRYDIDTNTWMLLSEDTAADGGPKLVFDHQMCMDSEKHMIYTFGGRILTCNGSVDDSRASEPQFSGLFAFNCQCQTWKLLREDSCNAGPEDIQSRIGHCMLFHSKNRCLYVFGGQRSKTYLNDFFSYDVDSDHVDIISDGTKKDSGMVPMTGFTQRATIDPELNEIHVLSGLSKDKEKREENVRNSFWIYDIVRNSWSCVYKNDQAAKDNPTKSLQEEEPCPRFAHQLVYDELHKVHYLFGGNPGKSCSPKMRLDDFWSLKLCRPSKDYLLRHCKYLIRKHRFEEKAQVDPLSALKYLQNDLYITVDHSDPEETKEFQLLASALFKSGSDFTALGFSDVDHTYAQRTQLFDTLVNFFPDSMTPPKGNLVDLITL
UniProt Q9UDY2: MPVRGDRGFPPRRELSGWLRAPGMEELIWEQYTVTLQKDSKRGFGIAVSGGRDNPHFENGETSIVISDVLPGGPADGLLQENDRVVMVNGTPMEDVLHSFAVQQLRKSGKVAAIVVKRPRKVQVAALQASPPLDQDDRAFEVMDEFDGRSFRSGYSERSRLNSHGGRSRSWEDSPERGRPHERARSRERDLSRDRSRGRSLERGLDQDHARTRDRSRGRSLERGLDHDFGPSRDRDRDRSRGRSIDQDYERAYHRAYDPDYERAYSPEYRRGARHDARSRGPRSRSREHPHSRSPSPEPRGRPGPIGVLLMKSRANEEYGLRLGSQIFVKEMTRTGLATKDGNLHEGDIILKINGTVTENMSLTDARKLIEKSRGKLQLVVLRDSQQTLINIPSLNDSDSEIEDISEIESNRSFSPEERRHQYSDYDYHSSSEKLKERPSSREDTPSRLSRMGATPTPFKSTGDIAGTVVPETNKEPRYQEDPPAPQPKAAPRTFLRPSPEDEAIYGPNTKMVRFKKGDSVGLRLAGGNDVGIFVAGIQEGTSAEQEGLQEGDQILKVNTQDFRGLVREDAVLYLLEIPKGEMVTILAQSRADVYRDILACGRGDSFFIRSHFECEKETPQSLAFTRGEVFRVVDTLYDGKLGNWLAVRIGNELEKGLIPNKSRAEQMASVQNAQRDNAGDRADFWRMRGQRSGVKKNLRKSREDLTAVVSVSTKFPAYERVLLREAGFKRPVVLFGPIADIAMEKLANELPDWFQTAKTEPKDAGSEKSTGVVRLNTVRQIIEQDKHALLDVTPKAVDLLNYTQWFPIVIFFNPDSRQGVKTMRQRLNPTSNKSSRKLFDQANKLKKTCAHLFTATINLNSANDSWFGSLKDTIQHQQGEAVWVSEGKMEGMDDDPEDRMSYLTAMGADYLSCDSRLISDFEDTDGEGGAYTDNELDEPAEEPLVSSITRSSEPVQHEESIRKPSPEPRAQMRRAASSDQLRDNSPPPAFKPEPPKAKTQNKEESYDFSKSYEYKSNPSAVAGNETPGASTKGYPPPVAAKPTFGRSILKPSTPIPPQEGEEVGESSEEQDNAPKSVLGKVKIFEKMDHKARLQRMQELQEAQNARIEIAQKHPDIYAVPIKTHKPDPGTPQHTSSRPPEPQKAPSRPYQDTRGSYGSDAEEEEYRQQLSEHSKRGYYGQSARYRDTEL
UniProt Q9UHQ4: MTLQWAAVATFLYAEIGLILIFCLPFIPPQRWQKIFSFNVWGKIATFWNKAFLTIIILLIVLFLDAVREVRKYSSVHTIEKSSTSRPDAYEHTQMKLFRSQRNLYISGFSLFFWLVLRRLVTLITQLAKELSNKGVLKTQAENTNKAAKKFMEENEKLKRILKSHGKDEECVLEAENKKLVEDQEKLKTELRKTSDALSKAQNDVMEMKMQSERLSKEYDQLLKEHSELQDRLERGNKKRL
UniProt Q9ULH0: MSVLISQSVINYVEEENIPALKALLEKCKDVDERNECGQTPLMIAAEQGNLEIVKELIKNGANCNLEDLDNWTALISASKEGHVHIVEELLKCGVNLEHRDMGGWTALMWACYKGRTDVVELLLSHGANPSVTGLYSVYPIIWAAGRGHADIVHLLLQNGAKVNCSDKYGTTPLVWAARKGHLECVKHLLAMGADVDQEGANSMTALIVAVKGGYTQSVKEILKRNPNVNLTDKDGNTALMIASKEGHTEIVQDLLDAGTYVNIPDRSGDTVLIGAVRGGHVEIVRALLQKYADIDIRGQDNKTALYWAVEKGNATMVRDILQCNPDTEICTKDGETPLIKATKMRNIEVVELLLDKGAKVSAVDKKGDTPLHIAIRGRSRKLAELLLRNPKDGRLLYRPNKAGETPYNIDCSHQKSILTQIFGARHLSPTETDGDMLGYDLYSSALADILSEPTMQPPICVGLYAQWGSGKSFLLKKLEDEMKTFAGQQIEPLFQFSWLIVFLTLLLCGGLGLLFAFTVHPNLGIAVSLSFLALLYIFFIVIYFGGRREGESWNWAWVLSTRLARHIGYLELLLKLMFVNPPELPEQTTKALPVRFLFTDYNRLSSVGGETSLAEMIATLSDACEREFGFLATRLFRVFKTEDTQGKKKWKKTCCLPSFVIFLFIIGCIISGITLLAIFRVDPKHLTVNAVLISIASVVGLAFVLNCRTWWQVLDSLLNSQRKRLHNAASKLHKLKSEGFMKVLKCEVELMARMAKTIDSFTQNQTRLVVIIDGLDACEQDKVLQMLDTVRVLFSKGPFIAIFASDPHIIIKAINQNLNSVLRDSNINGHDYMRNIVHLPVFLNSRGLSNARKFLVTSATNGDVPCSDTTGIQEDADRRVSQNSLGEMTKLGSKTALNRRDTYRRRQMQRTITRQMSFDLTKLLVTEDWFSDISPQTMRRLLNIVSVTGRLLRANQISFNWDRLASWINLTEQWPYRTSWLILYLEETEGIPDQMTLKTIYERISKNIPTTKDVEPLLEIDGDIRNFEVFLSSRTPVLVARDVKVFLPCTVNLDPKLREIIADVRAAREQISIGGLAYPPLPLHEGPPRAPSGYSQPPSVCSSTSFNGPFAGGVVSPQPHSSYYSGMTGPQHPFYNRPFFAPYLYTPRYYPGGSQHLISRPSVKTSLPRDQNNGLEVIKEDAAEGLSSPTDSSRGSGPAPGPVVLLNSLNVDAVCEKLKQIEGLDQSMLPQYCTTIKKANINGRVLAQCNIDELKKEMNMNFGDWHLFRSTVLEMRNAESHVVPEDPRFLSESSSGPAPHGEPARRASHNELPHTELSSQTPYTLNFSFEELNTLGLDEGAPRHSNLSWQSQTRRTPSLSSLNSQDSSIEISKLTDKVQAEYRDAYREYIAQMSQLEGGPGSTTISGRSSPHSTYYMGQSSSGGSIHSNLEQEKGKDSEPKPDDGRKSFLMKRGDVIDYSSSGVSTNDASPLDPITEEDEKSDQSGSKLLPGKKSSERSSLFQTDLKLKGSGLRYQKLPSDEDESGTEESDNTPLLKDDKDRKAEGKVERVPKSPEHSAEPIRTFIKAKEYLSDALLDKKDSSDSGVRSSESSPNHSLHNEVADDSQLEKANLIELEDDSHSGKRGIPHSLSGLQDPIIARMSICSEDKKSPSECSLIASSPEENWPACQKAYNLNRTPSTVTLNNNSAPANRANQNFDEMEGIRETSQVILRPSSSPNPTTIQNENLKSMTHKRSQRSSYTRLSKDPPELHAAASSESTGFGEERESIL
UniProt Q9UHC7: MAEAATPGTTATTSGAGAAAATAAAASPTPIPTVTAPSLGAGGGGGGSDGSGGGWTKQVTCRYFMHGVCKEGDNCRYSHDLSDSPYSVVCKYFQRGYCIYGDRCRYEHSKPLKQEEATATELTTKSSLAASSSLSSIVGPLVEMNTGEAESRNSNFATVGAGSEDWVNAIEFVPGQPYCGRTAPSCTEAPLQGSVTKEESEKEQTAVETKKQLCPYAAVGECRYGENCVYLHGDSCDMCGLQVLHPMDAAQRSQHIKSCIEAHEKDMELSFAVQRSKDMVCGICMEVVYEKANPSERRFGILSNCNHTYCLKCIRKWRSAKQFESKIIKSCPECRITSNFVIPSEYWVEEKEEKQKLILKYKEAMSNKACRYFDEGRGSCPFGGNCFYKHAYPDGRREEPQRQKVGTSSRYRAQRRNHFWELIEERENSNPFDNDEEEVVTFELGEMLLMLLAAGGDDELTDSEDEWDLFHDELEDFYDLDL
UniProt Q9P2W1: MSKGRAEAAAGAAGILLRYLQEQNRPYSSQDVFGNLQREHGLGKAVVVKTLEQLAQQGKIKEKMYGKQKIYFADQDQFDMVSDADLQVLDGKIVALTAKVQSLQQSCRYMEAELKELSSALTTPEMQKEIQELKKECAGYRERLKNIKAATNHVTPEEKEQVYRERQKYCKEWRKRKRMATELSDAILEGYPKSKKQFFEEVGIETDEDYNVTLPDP
UniProt Q9Y285: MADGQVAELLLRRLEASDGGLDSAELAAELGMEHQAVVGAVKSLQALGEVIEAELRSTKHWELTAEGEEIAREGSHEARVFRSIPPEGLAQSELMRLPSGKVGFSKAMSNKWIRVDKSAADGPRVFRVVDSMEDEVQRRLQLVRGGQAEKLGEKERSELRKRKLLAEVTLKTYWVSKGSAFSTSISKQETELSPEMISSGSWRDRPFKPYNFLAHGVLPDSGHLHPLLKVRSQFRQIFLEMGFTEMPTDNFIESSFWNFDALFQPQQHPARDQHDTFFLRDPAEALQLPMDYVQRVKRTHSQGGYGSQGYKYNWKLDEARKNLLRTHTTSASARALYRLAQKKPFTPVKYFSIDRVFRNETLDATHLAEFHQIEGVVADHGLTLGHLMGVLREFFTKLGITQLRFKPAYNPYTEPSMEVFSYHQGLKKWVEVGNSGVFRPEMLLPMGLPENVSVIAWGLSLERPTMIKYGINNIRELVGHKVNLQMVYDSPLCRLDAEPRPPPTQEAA
UniProt Q9UBT6: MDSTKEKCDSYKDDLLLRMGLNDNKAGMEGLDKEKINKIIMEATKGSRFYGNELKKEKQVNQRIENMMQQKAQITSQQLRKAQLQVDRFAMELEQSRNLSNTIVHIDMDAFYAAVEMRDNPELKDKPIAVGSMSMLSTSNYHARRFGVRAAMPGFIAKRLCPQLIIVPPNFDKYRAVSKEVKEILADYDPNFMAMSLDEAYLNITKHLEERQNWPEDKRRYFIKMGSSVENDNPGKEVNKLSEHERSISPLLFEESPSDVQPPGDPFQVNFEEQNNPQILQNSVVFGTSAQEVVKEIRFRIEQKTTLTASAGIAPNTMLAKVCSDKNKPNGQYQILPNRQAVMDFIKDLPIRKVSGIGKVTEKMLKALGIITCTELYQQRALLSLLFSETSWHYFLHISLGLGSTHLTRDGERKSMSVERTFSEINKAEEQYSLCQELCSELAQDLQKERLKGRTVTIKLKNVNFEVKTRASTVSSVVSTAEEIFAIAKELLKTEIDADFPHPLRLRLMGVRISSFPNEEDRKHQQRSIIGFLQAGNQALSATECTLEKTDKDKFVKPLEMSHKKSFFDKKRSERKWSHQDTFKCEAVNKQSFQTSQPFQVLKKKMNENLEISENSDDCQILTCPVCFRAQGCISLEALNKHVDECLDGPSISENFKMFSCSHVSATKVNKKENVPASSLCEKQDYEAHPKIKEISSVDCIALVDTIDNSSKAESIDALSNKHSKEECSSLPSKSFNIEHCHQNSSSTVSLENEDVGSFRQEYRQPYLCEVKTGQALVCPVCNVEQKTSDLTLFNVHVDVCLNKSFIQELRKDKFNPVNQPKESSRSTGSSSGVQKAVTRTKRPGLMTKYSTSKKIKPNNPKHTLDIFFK

Compound: Nc1ncnc2c1ncn2[C@@H]1O[C@H](COP(=O)(O)OP(=O)(O)OP(=O)(O)O)[C@@H](O)[C@H]1O [adenosine triphosphate]
Assay: NP40-soluble protein abundance relative to vehicle (solubility fold change) (ratio); higher = more soluble protein in presence of ATP
Outline: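 Eight concentrations, 0.1 to 10 mM, were tested on Jurkat crude lysate for 10 min at room temperature and then 3 min at 37 °C, in three independent experiments. The lysate was solubilised with 0.8% NP40 and benzonase, ultracentrifuged, and the supernatant TMT-labelled for LC-MS/MS. Each value is the fold change against the detergent-processed vehicle in its own replicate, from vsn-normalised intensities.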

Target	NP40-soluble protein abundance (concentration: 1mM)	NP40-soluble protein abundance (concentration: 2mM)	NP40-soluble protein abundance (concentration: 4mM)	NP40-soluble protein abundance (concentration: 6mM)	NP40-soluble protein abundance (concentration: 8mM)	NP40-soluble protein abundance (concentration: 10mM)
UniProt Q9UGQ2 and related entries	1.01 ± 0.036	1.08 ± 0.05	1.05 ± 0.096	0.961 ± 0.06	1.02 ± 0.064	0.965 ± 0.037
UniProt Q9ULU4 and related entries	1.08 ± 0.015	1.07 ± 0.052	1.1 ± 0.05	1.14 ± 0.13	1.12 ± 0.076	1.14 ± 0.068
UniProt Q9Y282 and related entries	0.945 ± 0.045	0.9761 ± 0.0061	0.956 ± 0.028	0.922 ± 0.037	0.952 ± 0.019	0.956 ± 0.025
SARDH (UniProt Q9UL12)	1.01 ± 0.071	1.03 ± 0.073	1.04 ± 0.067	1.01 ± 0.12	1.06 ± 0.071	1.07 ± 0.1
AP4E1 (UniProt Q9UPM8)	1.11 ± 0.028	1.07 ± 0.031	1.11 ± 0.07	1.11 ± 0.046	1.14 ± 0.07	1.18 ± 0.072
UniProt Q9Y259 and related entries	1.02 ± 0.073	1.06 ± 0.069	1.036 ± 0.0097	1.01 ± 0.059	1.02 ± 0.056	1.03 ± 0.051
TTF2 (UniProt Q9UNY4)	1.01 ± 0.035	1.01 ± 0.026	1.05 ± 0.021	1.06 ± 0.022	0.987 ± 0.011	1.01 ± 0.026
UniProt Q9UBC3 and related entries	1.265 ± 0.011	1.48 ± 0.094	1.52 ± 0.059	1.44 ± 0.088	1.54 ± 0.23	1.61 ± 0.17
UniProt Q9UKT9 and related entries	1.02 ± 0.085	1.05 ± 0.032	1.1 ± 0.081	1.17 ± 0.081	1.19 ± 0.058	1.15 ± 0.071
MKLN1 (UniProt Q9UL63)	0.992 ± 0.06	0.945 ± 0.024	0.959 ± 0.034	0.943 ± 0.089	0.969 ± 0.086	0.932 ± 0.028
ZC3H4 (UniProt Q9UPT8)	0.998 ± 0.065	1.02 ± 0.026	1.03 ± 0.03	1.07 ± 0.032	1.017 ± 0.0029	1.029 ± 0.0049
UniProt Q9UDY2 and related entries	1.18 ± 0.037	1.22 ± 0.056	1.26 ± 0.13	1.28 ± 0.1	1.2 ± 0.082	1.26 ± 0.13
ZMIZ1 (UniProt Q9ULJ6)	1.09 ± 0.17	0.986 ± 0.16	0.989 ± 0.11	0.959 ± 0.19	1.03 ± 0.06	1.09 ± 0.14
STUB1 (UniProt Q9UNE7)	0.958 ± 0.062	0.934 ± 0.049	0.934 ± 0.036	0.927 ± 0.047	0.942 ± 0.049	0.898 ± 0.015
UniProt Q9P2N6-3	1.11 ± 0.049	1.06 ± 0.085	1.1 ± 0.11	1.13 ± 0.17	1.13 ± 0.16	1.2 ± 0.14
UniProt Q9ULC4 and related entries	0.98 ± 0.034	0.985 ± 0.039	0.971 ± 0.027	0.927 ± 0.078	0.977 ± 0.052	0.98 ± 0.05
UniProt Q9UIB8 and related entries	0.945 ± 0.035	0.949 ± 0.034	0.905 ± 0.04	0.932 ± 0.046	0.904 ± 0.038	0.89 ± 0.065

Target	NP40-soluble protein abundance (concentration: 1mM)	NP40-soluble protein abundance (concentration: 2mM)	NP40-soluble protein abundance (concentration: 4mM)	NP40-soluble protein abundance (concentration: 6mM)	NP40-soluble protein abundance (concentration: 8mM)	NP40-soluble protein abundance (concentration: 10mM)
UniProt Q9UHQ4 and related entries	0.934 ± 0.06	0.961 ± 0.039	0.946 ± 0.063	1.02 ± 0.022	0.917 ± 0.047	0.954 ± 0.044
UniProt Q9ULH0 and related entries	1.08 ± 0.068	1.07 ± 0.018	1.07 ± 0.028	1.09 ± 0.081	1.04 ± 0.042	1.09 ± 0.04
UniProt Q9UPZ3 and related entries	1.02 ± 0.022	1.032 ± 0.0091	1.03 ± 0.085	1.06 ± 0.078	1.08 ± 0.12	1.04 ± 0.069
UniProt Q9UBL3 and related entries	1.01 ± 0.031	1.02 ± 0.016	0.986 ± 0.025	1.02 ± 0.014	1.03 ± 0.013	1.02 ± 0.03
MRTO4 (UniProt Q9UKD2)	1.05 ± 0.048	1.09 ± 0.023	1.06 ± 0.012	1.02 ± 0.12	0.962 ± 0.036	1.04 ± 0.043
UniProt Q9UHC7 and related entries	0.929 ± 0.067	0.958 ± 0.084	0.928 ± 0.035	0.985 ± 0.14	0.911 ± 0.066	0.954 ± 0.068
UniProt Q9UJU2 and related entries	0.899 ± 0.052	0.878 ± 0.047	0.843 ± 0.043	0.881 ± 0.055	0.86 ± 0.02	0.86 ± 0.071
PSMC3IP (UniProt Q9P2W1)	0.968 ± 0.051	1 ± 0.018	0.952 ± 0.029	0.973 ± 0.061	0.944 ± 0.029	0.911 ± 0.033
UniProt Q9UMZ2-3|Q9UMZ2-4|Q9UMZ2-5|Q9UMZ2-6|Q9UMZ2-7|Q9UMZ2-8|Q9UMZ2-9|Q9UMZ2	0.929 ± 0.041	0.938 ± 0.031	0.935 ± 0.03	0.965 ± 0.036	0.909 ± 0.016	0.904 ± 0.023
LCMT1 (UniProt Q9UIC8)	0.987 ± 0.045	0.987 ± 0.074	0.996 ± 0.068	0.975 ± 0.11	1.01 ± 0.083	0.976 ± 0.048
UniProt Q9UN36 and related entries	0.99 ± 0.026	1.02 ± 0.048	1.01 ± 0.04	0.997 ± 0.036	0.968 ± 0.058	0.948 ± 0.029
FARSA (UniProt Q9Y285)	0.985 ± 0.07	0.966 ± 0.042	0.947 ± 0.027	0.899 ± 0.096	0.94 ± 0.012	0.968 ± 0.038
UniProt Q9UIG0 and related entries	1.02 ± 0.016	1.05 ± 0.014	1.13 ± 0.012	1.23 ± 0.019	1.28 ± 0.033	1.39 ± 0.049
POLK (UniProt Q9UBT6)	0.964 ± 0.048	0.968 ± 0.056	1.04 ± 0.032	1.03 ± 0.05	1.02 ± 0.04	1.02 ± 0.062
UBQLN1 (UniProt Q9UMX0)	0.899 ± 0.082	0.913 ± 0.084	0.909 ± 0.057	0.921 ± 0.09	0.853 ± 0.035	0.796 ± 0.065
UniProt Q9UI08-2|Q9UI08	0.904 ± 0.05	0.914 ± 0.026	0.876 ± 0.037	0.903 ± 0.047	0.86 ± 0.025	0.882 ± 0.025

Single records (already shown).
UniProt Q9UJU2 and related entries is listed with NP40-soluble protein abundance (concentration: 1mM): 0.899 ± 0.052; NP40-soluble protein abundance (concentration: 2mM): 0.878 ± 0.047; NP40-soluble protein abundance (concentration: 4mM): 0.843 ± 0.043; NP40-soluble protein abundance (concentration: 6mM): 0.881 ± 0.055; NP40-soluble protein abundance (concentration: 8mM): 0.86 ± 0.02; NP40-soluble protein abundance (concentration: 10mM): 0.86 ± 0.071
UniProt Q9UIG0 and related entries is listed with NP40-soluble protein abundance (concentration: 1mM): 1.02 ± 0.016; NP40-soluble protein abundance (concentration: 2mM): 1.05 ± 0.014; NP40-soluble protein abundance (concentration: 4mM): 1.13 ± 0.012; NP40-soluble protein abundance (concentration: 6mM): 1.23 ± 0.019; NP40-soluble protein abundance (concentration: 8mM): 1.28 ± 0.033; NP40-soluble protein abundance (concentration: 10mM): 1.39 ± 0.049
